Experimental data from paper PMC6954894.
No constants are given. Whether binding was seen depends on the method and setting. For part of these data: Binding seen in cells or lysates may run through a third protein. Some entries that bind do so weakly or less than the wild type.

Amino acid sequences for entries named in this document (tags omitted). Residues count along the entry.
UniProt Q9QUK6, residues 26-835: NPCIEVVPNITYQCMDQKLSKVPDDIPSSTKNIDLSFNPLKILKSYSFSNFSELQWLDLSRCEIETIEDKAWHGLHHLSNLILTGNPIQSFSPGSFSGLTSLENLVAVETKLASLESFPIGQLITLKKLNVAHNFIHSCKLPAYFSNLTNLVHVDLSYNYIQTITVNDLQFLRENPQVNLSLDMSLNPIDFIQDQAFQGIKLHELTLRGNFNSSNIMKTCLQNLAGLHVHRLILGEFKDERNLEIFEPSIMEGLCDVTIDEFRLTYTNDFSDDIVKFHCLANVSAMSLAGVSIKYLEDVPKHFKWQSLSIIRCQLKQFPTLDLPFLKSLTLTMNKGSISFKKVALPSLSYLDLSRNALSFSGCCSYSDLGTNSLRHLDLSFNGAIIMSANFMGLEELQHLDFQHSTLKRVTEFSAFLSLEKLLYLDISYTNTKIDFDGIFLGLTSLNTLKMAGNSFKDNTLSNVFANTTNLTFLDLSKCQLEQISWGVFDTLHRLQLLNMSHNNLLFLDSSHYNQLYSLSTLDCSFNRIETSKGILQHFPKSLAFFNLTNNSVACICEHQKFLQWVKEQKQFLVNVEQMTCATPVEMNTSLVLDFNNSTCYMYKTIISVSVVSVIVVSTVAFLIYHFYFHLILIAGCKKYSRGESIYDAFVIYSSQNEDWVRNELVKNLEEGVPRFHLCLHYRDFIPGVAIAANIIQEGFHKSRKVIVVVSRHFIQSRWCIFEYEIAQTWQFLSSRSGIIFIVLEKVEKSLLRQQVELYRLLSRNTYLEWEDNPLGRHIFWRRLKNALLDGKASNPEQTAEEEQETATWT

B1: Rab5a (protein, UniProt Q9CQD1 1-215)
chain: MANRGATRPNGPNTGNKICQFKLVLLGESAVGKSSLVLRFVKGQFHEFQESTIGAAFLTQTVCLDDTTVKFEIWDTAGQERYHSLAPMYYRGAQAAIVVYDITNEESFARAKNWVKELQRQASPNIVIALSGNKADLANKRAVDFQEAQSYADDNSLLFMETSAKTSMNVNEIFMAIAKKLPKNEPQNPGANSARGRGVDLTEPAQPARSQCCSN
B2: receptor-interacting serine/threonine-protein kinase 1, Q60855 1-656 (protein)
chain: MQPDMSLDNIKMASSDLLEKTDLDSGGFGKVSLCYHRSHGFVILKKVYTGPNRAEYNEVLLEEGKMMHRLRHSRVVKLLGIIIEEGNYSLVMEYMEKGNLMHVLKTQIDVPLSLKGRIIVEAIEGMCYLHDKGVIHKDLKPENILVDRDFHIKIADLGVASFKTWSKLTKEKDNKQKEVSSTTKKNNGGTLYYMAPEHLNDINAKPTEKSDVYSFGIVLWAIFAKKEPYENVICTEQFVICIKSGNRPNVEEILEYCPREIISLMERCWQAIPEDRPTFLGIEEEFRPFYLSHFEEYVEEDVASLKKEYPDQSPVLQRMFSLQHDCVPLPPSRSNSEQPGSLHSSQGLQMGPVEESWFSSSPEYPQDENDRSVQAKLQEEASYHAFGIFAEKQTKPQPRQNEAYNREEERKRRVSHDPFAQQRARENIKSAGARGHSDPSTTSRGIAVQQLSWPATQTVWNNGLYNQHGFGTTGTGVWYPPNLSQMYSTYKTPVPETNIPGSTPTMPYFSGPVADDLIKYTIFNSSGIQIGNHNYMDVGLNSQPPNNTCKEESTSRHQAIFDNTTSLTDEHLNPIRENLGRQWKNCARKLGFTESQIDEIDHDYERDGLKEKVYQMLQKWLMREGTKGATVGKLAQALHQCCRIDLLNHLIRASQS

Columns and labels:
[1] = molecular target: Toll-like receptor 4 (mouse (endogenous in BMDM)) (UniProt Q9QUK6); assay: co-IP; endogenous proteins in BMDM treated with LPS (1 μg/mL) for 1 h after PD168393 (PD) pretreatment for 30 min
[2] = molecular target: Toll-like receptor 4 (mouse (endogenous in BMDM)) (UniProt Q9QUK6); assay: co-IP; endogenous proteins in BMDM treated with LPS (1 μg/mL) for 1 h
[3] = molecular target: RIPK3 (mouse (endogenous in BMDM)), Q9QZL0; assay: immunoblotting; endogenous proteins in BMDM after LPS; named together with confocal microscopy; no further details shown; conditions: remark: other sources report otherwise

| Binder | binding [1] | binding [2] | binding [3] |
| --- | --- | --- | --- |
| B1 | no binding (condition: with PD168393 pretreatment) | binds |  |
| B2 |  |  | binds |
